Measurements: patent US4547489A (Ortho Pharmaceutical Corporation, priority 1984, dated 1985)

Experiment: general procedure: solution-phase peptide synthesis; DCC/HOBt; isobutyl chloroformate/N-methylmorpholine mixed anhydride; diphenylpho
Conditions: late stage modification step
In the case of “Aoc-Arg(Tos)-Lys(Z)-Asp(OBzl)-Val-Tyr(Bzl)”, the step yield is reported as 96%. In the case of “Aoc-Arg(Tos)-Lys(Z)-Asp(OBzl)-Val-Tyr(Bzl)-Gly”, the step yield is reported as 93%. For FMOC-Lys-(HCl)-Asp-Val-Tyr-OBzl, the step yield was 100%. Substance “HCl Arg(Tos)-Lys(Z)-Asp(OBzl)-Val-Tyr(Bzl)” has a step yield of 100%. With “HCl Arg(Tos)-Lys(Z)-Asp(OBzl)-Val-Tyr(Bzl)-Gly” the step yield was 100%.
